Measurements reported in publication PMC4666394, “Human HLTF mediates postreplication repair by its HIRAN domain-dependent replication fork remodelling”.
Numbering of substitutions follows the chain as printed. For part of these data: Negatives hold for the conditions tested. At least one verdict rests on a figure or table, not on a statement of the authors. Tags and fusion partners may be left off the protein sequences shown. For part of these data: For at least one entry, the source does not settle the construct or the ends of the probe. For part of these data: The comparison behind a weaker result is the experiment's own reference, which may not be listed here.

Key:
[1] = target: T1, HLTF HIRAN domain NN90,91AA N90A,N91A (human) (UniProt Q14527); assay: EMSA; details: recombinant protein; residues 56-168; single-stranded DNA
T1 sequence (looked up): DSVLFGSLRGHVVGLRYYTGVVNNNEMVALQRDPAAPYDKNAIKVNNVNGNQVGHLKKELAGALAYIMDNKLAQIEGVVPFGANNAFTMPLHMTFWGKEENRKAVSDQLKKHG

[2] = target: T2, HLTF HIRAN domain WT (human) (UniProt Q14527); assay: EMSA; details: very high affinity for ssDNA; recombinant protein; residues 56-168; single-stranded DNA
T2 sequence (looked up): T1 sequence (looked up) with A35N, A36N

[3] = target: T3, GST-FLAG-HIRAN (WT) (human) (UniProt Q14527); assay: competition with a labelled probe; details: 0-1 uM competitor against Cy5 fork, lower affinity than fork; Competition: 20 mM HEPES pH 7.5, 150 mM NaCl, 1 mM DTT, 0.1 ug/mL BSA, 0.2% NP40, 10% glycerol, room temperature 15 min; recombinant protein; residues 56-168; protein details: GST-FLAG; label: 5' fluorescein; single-stranded DNA
T3 sequence (looked up): T1 sequence (looked up) with A35N, A36N

Row | Sequence | binding result [1] | binding result [2] | binding result [3]
1 | GAGAGAGAGAGAGAGAGAGAGAGAGAGAGAGAGAGAGAGAGA [ss 42-mer O1358] | no binding | binds | –
2 | GTTTTCCCAGTCACGACGATGCTCCGGTACTCCAGTGTAGGCATATTACGAATTCTTGAGGCAGGCATGGTAGCT [ss 75-mer O3063] | – | – | binds more weakly
